Measurements reported in article PMC11421797.
No constants are given. Whether binding was seen depends on the method and setting. Binding seen in cells or lysates may run through a third protein. A yes stands for co-enrichment or nearness to the bait. Other partners may have been found.

Chains of the proteins cited; added tags and fusions are not shown.
UniProt Q77Q36: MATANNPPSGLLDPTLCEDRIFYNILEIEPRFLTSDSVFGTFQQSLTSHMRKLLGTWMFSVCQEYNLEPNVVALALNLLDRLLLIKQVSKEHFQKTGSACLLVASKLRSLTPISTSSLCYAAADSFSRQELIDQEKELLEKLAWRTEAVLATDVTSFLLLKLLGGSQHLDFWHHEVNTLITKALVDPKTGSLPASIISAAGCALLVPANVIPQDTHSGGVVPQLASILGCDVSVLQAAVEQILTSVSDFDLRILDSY
UniProt O14744: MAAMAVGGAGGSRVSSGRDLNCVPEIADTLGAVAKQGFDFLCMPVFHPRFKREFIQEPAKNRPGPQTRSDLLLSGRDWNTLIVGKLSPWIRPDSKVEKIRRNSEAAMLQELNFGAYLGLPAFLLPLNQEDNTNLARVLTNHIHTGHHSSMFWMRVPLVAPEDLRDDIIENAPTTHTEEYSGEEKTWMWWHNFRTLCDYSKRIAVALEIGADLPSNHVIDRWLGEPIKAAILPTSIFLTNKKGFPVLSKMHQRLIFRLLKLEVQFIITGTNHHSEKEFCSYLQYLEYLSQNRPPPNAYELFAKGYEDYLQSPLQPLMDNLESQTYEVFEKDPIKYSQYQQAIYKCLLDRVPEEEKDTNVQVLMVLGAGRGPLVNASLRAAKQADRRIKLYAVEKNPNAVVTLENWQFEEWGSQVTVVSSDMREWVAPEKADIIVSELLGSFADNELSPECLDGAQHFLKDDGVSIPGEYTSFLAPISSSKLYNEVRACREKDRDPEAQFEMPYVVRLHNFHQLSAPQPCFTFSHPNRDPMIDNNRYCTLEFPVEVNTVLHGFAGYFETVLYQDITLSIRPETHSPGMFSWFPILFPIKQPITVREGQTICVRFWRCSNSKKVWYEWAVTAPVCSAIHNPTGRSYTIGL

Biological target: Flag-tagged KSHV vCyclin (Kaposi's sarcoma-associated herpesvirus (KSHV BAC16)) (UniProt Q77Q36)
Test: affinity purification with mass spectrometry; Flag-tagged vCyclin or empty vector overexpressed in HEK293T and HEK293T.219 cells for 48 h; lysate in IP lysis buffer on anti-FLAG M2 agarose beads 6-8 h at 4°C, washed 4 times with PBS; eluates analysed by MS

With “endogenous protein arginine methyltransferase 5 (from UniProt O14744 1-637) (enzyme)” the binding was “binds”.
